Experimental data as given in PMC8104389.
These are yes or no findings as the source states them, for the method shown. Binding seen in cells or lysates may run through a third protein. Here binding means that the protein was enriched with, or labelled near, the bait; the list need not be complete.

Amino acid sequences for entries named in this document (tags omitted).
UniProt Q80TT8: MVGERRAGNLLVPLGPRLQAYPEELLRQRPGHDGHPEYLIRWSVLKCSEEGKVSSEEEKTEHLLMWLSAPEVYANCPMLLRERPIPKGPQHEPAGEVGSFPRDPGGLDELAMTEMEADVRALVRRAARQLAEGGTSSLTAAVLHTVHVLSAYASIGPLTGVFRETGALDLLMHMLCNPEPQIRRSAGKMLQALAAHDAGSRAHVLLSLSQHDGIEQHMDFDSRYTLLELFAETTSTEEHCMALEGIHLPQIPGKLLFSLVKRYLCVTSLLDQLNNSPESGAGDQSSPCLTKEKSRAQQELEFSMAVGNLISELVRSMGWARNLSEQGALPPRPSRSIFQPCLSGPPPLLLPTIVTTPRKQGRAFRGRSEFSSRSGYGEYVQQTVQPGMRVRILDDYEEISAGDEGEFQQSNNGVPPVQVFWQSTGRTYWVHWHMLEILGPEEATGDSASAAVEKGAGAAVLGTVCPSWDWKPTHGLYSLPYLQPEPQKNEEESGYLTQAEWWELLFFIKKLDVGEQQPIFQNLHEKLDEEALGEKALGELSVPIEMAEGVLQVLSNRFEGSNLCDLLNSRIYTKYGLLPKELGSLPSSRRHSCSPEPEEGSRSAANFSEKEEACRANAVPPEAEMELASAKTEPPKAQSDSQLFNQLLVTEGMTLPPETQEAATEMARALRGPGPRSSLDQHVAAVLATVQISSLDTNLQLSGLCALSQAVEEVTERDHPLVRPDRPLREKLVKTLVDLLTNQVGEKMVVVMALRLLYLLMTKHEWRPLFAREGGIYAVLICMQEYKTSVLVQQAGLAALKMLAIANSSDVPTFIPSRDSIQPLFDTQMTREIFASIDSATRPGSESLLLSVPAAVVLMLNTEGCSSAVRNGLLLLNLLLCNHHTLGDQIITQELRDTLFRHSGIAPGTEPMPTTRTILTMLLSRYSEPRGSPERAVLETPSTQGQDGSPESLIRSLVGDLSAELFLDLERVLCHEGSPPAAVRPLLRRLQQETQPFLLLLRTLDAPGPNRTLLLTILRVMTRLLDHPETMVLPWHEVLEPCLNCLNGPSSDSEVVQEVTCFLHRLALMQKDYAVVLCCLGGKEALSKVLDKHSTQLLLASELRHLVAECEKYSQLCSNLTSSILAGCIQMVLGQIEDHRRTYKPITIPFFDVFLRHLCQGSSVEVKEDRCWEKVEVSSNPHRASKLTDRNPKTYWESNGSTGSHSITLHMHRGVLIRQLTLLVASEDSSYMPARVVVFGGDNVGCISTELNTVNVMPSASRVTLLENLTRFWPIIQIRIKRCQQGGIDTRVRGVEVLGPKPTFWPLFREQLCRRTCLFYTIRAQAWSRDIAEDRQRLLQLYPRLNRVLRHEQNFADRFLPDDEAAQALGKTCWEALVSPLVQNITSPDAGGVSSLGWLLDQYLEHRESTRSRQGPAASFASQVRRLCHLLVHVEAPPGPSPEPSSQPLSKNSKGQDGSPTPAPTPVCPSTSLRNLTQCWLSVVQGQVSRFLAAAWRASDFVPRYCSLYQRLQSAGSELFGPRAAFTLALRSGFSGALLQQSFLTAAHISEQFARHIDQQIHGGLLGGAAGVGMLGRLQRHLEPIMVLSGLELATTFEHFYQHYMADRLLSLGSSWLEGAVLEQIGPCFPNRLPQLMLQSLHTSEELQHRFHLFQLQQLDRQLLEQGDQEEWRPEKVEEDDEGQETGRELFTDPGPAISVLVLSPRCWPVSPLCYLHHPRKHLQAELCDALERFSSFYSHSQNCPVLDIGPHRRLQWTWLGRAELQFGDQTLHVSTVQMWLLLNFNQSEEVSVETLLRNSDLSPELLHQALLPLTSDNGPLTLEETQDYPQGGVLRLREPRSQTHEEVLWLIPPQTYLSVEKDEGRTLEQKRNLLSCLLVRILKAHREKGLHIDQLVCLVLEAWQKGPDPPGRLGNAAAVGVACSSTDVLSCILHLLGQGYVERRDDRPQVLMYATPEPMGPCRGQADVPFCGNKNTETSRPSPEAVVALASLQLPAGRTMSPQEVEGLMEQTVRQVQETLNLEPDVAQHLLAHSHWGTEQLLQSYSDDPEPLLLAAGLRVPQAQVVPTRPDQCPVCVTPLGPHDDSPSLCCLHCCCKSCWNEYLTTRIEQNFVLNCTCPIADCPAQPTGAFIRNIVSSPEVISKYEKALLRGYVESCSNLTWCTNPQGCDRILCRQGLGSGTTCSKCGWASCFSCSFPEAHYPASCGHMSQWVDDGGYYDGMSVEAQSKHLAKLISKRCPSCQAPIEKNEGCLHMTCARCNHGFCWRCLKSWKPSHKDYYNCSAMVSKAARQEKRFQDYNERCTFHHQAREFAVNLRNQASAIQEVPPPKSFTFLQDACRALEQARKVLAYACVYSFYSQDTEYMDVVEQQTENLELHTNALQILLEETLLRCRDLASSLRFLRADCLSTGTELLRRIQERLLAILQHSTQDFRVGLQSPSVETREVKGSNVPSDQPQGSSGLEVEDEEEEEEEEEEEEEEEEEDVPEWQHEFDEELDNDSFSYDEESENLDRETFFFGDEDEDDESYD
UniProt O09106: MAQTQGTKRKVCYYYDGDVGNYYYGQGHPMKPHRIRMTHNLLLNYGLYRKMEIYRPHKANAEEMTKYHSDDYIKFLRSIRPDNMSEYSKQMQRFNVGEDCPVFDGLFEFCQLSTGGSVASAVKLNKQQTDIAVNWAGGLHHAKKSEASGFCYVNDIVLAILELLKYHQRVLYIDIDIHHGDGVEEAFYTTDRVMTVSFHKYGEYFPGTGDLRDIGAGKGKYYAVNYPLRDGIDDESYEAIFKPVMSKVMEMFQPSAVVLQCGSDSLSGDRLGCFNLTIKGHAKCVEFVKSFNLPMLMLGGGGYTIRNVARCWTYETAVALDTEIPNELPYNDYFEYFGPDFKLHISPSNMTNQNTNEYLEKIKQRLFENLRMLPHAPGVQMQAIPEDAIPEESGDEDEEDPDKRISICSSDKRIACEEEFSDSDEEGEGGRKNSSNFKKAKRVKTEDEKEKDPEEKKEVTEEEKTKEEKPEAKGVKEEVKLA

T1: potassium channel tetramerization domain containing 19 (KCTD19), endogenous in mouse testis (mouse (endogenous in testis)) (UniProt Q562E2)
T1 sequence: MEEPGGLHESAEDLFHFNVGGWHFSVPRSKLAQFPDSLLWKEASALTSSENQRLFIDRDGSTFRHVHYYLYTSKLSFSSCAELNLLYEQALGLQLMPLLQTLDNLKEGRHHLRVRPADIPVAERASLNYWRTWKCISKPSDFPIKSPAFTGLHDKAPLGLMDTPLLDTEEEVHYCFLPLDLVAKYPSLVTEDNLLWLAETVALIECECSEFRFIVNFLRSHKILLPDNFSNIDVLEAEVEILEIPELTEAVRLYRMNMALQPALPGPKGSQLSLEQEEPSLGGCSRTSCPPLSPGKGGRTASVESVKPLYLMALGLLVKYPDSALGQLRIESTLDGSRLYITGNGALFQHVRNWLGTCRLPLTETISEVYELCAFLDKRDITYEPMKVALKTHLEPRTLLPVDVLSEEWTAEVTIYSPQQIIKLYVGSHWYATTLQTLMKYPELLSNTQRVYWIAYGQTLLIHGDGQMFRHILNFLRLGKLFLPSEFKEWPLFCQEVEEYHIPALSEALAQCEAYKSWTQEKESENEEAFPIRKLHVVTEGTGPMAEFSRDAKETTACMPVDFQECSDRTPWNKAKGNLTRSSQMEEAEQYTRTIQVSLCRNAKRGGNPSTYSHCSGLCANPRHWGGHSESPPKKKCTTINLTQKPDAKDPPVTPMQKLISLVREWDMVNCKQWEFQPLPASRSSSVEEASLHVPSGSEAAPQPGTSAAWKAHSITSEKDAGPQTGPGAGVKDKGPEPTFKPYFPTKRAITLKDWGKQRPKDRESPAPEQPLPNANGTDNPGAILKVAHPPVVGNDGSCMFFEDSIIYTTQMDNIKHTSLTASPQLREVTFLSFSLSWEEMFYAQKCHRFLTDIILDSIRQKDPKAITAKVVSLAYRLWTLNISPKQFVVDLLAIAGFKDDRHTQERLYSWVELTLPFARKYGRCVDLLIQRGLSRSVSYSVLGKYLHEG

B1: zinc finger protein 541 (ZFP541), endogenous in mouse testis (protein, UniProt Q0GGX2-1 1-1363)
chain: MEPYSLGEEGALPSEGHLPSFSESQVLNCSDTLNRDLGPSTRDLLYAGLSGLDLDPSLSTSDMPSEVLEDNLDTLSLYSGKDSDSVKLLEEYADSESQTSLQDLGLGALKVPKEADEGGRATGSTRKGKRQHSSPQNPLLDCSLCGKVFSSASSLSKHYLTHSQERKHVCKVCSKAFKRQDHLTGHMLTHQKTKPFVCIEQGCSKSYCDYRSLRRHYEVQHGVCILKETPPEEEAYGDPTHNHDVANQPPPSGLRSLGPPEARSPGSVLPNRDLLRCIVSSIVHQKIPSPGPAVGPSDTEARSSACACPTSLGSSSCTPASTPVALGTLGSEIPEETHPPRKEAATEVFTPVQSRAAENGVPDPPESELESESPRLQRPSSLEGWPEGSSLPACLPLFRGHSVPSGSQPSSHNFQWLRNLPGCPKNKGSNVFMVHKPPAVASREGSEGGGSGPSSTPTSVEPSPSLGTTQEELLPFPPALLKAPGEASSEVRQAAGEDETWAPKKCKPDCESFPWQSPTELGLQDAQNPGGLPSDATPLFRQLFMKSQESLVSHEQMQVLQMIAKSQRIFSHTQVATASAQRPGPEGKQSTLKPLQGPWPPQTLPPAPTVDSFQIGPGHSEPEGSPVRRRKTMPAVSRETSPGGPRRDTKGGPKVASAPPSLTGPGLLPSRNPDSSSLAKGTLDLGDIIPNAGSRQSQLGGDEPAGTQLVGKQGQGENGLASGAMRGEKGPACPRGGGYRLFSGHPRAQRFSGFRKEKVKMDVCCAASPSQVAMASFSSAGPLADPPRDMKSKLTIFNRIQGGNIYRLPHPVKEESLAGGCHQPNGGPTDWMESKSTFVCKNCSQMFYTEKGLSSHMCFHSDQWPSPRGKQEQQVKGQMVASVKRKAGREEGAVEDMKRHYDCSSSEPQDVTILSMLVSSGSCGVTPVVLSSLLQGQEKDGEERDSKESCQYRKRKKRPQPKALFAPPAPSALGEPGPGGCHQSCLHSPVFLVDHLLKGLFQCSPYTPPPMLSPIREGSGLYFNTLCSTSRAGPHLISPVLDQVDSSFGICVVKDDTKISIEPHINVGSRFQAEIPELQERLLARVDENVASLVWKPWGDVMTNPETQDRVMELCNVACSSVMPGGGTNLELALHCLHDAQGSVQVALETLLLRGPQKPRTHPLADYRYTGSDIWTPMEKRLFKKAFCAHKKDFYLIHKMIQTKSVAQCVEYYYIWKKMVKFDCGRAPGLEKRGRRELDEVERTEDKVTCSPRERPTHRPTPELKIKTKSYRRESILHSSPSAAPKRTPEPPGSVESQGVFPCRECERVFDKIKSRNAHMKRHRLQEHVEPVRVKWPVKPYPLKEEEEEEEEELGADMGPLQW
B2: DNTTIP1, endogenous in mouse testis (protein, UniProt Q99LB0 1-328)
chain: MGATGDTEQPRGPGGAERGGLELGDAGAAGQPVLTNPWNIMIKHRQVQRRGRRSQMTTSFTDPAISMDLLRAVLQPSINEEIQGVFNKYMKFFQKAALNVRDNVGEEVDAEQLIQEACRSCLEQAKLLFSDGEKVIPRLAHELPGIKRGRQAEEESHRGSPIPKKRKGRPPGHVLSNDRAAAGMVWKQKSCEPIRREGPKWDPARLNESTTFVLGSRANKALGMGGTRGRIYIKHPHLFKYAADPQDKHWLAEQHHMRATGGKMAYLLIEEDIRDLAASDDYRGCLDLKLEELKSFVLPSWMVEKMRKYMETLRTENEHRAAEAPPQT

What follows are molecules tested against T1, potassium channel tetramerization domain containing 19 (KCTD19), endogenous in mouse testis (mouse (endogenous in testis)) (assay: affinity purification with mass spectrometry; juvenile (PND21) WT testis lysate against Kctd19 del/del testis lysate as control; IP with anti-KCTD19 rabbit pAb or rat mAb #19-3 on Dynabeads Protein G; NP40 lysis buffer, 1 h at 4°C, 3 washes; LC-MS/MS).

binding, binds:
CUL9, endogenous in mouse testis (from UniProt Q80TT8 1-2530)
histone deacetylase 1 (HDAC1), endogenous in mouse testis (from UniProt O09106 1-482)
B1
B2
